We go through one molecule from patent US20040063907A1 (published 2004).

These are yes or no findings as the source states them, for the method shown. Binding can be weak; no strength is given.

This assay addresses HLA-A*0201 (human). The assay can be described thus: fluorescence polarization competition, test peptide at 100 uM. (In general: Polarisation of emitted light reports the rotation of a fluorescent probe.)

As for ITNSRPPCV [C35 peptide I105 to V113], the binding entry is “binds”.
